# Experimental data from the supplement of paper PMC8728848.
# The list shows a part of the results.
# B1: Wzz (Escherichia coli) (protein)
# chain: MRTWKFPSVRVMMRVENNNVSGQNHDPEQIDLIDLLVQLWRGKMTIIISVIVAIVLAIGYLAVAKEKWTSTAIITQPDVGQIAGYNNAMNVIYGQAAPKVSDLQETLIGRFSSAFSALAETLDNQEEPEKLTIEPSVKNQQLPLTVSYVGQTAEGAQMKLAQYIQQVDDKVNQELEKDLKDNIALGRKNLQDSLRTQEVVAQEQKDLRIRQIQEALQYANQAQVTKPQIQQTGEDITQDTLFLLGSEALESMIKHEATRPLVFSSNYYQTRQNLLDIDNLDVDKLDIHAYLYVMKPTLPIRRDSPKKAITLILAVLLGGMVGAGIVLGRNALRNYNAK
# What was measured:
# Test in all cases: glycan array binding signal (z-score within array); higher = stronger binding
# Conditions in all cases: glycan notation: IUPAC condensed, linker removed
# [1] = target: Gal3S(b1-4)Glc
# Procedure, shortened: (§1)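 Glycan array binding is given as a within-array Z-score, which can be read as non-binding when negative. The arrays, 3228 of them, came from the Consortium for Functional Glycomics database and were retained only where the protein sequence was available. Z-scores were averaged across arrays of the same protein sequence at different concentrations or buffers and across linkers.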
# [2] = target: Gal3S(b1-4)Glc6S
# Procedure, shortened: as §1
# [3] = target: Gal3S(b1-4)GlcNAc
# Procedure, shortened: as §1
# [4] = target: Gal3S(b1-4)[Fuc(a1-3)]Glc6S
# Procedure, shortened: as §1
# [5] = target: Gal3S(b1-4)[Fuc(a1-3)]GlcNAc
# Procedure, shortened: as §1
# [6] = target: Gal3S(b1-4)[Fuc(a1-3)]GlcNAc6S
# Procedure, shortened: as §1
# [7] = target: Gal3S4S(b1-4)GlcNAc
# Procedure, shortened: as §1
# [8] = target: Gal3S6S(b1-4)GlcNAc
# Procedure, shortened: as §1
# [9] = target: Gal3S6S(b1-4)GlcNAc6S
# Procedure, shortened: as §1
# [10] = target: Gal4S(b1-4)GlcNAc
# Procedure, shortened: as §1
# [11] = target: Gal4S6S(b1-4)GlcNAc
# Procedure, shortened: as §1
# [12] = target: Gal6P(b1-4)GlcNAc
# Procedure, shortened: as §1
# [13] = target: Gal6S(b1-3)GlcNAc
# Procedure, shortened: as §1
# [14] = target: Gal6S(b1-3)GlcNAc6S
# Procedure, shortened: as §1
# [15] = target: Gal6S(b1-4)Glc
# Procedure, shortened: as §1
# [16] = target: Gal6S(b1-4)Glc6S
# Procedure, shortened: as §1
# [17] = target: Gal6S(b1-4)GlcNAc
# Procedure, shortened: as §1
# [18] = target: Gal6S(b1-4)GlcNAc6S
# Procedure, shortened: as §1
# [19] = target: GalNAc(a1-3)Gal
# Procedure, shortened: as §1
# [20] = target: GalNAc(a1-3)GalNAc
# Procedure, shortened: as §1
# [21] = target: GalNAc(a1-3)GalNAc(b1-3)Gal(a1-4)Gal(b1-4)Glc
# Procedure, shortened: as §1
# [22] = target: GalNAc(a1-3)GalNAc(b1-3)Gal(a1-4)Gal(b1-4)GlcNAc
# Procedure, shortened: as §1
# [23] = target: GalNAc(b1-3)Gal
# Procedure, shortened: as §1
# [24] = target: GalNAc(b1-3)Gal(a1-4)Gal(b1-4)GlcNAc
# Procedure, shortened: as §1
# [25] = target: GalNAc(b1-3)Gal(a1-4)Gal(b1-4)GlcNAc(b1-3)Gal(b1-4)Glc
# Procedure, shortened: as §1
# [26] = target: GalNAc(b1-3)Gal(a1-6)Gal(b1-4)Glc
# Procedure, shortened: as §1
# [27] = target: GalNAc(b1-3)GalNAc
# Procedure, shortened: as §1
# [28] = target: GalNAc(b1-3)GlcNAc
# Procedure, shortened: as §1
# [29] = target: GalNAc(b1-4)Gal(b1-4)Glc
# Procedure, shortened: as §1
# [30] = target: GalNAc(b1-4)GlcNAc
# Procedure, shortened: as §1
# [31] = target: GalNAc(b1-4)GlcNAc(b1-2)Man
# Procedure, shortened: as §1
# [32] = target: GalNAc(b1-4)GlcNAc(b1-2)Man(a1-3)[GalNAc(b1-4)GlcNAc(b1-2)Man(a1-6)]Man(b1-4)GlcNAc(b1-4)GlcNAc
# Procedure, shortened: as §1
# [33] = target: GalNAc(b1-4)GlcNAc(b1-3)GalNAc(b1-4)GlcNAc
# Procedure, shortened: as §1
# [34] = target: GalNAc(b1-4)GlcNAc6S
# Procedure, shortened: as §1
# [35] = target: GalNAc(b1-6)GalNAc
# Procedure, shortened: as §1
# [36] = target: GalNAc3S(b1-4)GlcNAc
# Procedure, shortened: as §1
# [37] = target: GalNAc3S(b1-4)GlcNAc3S
# Procedure, shortened: as §1
binder,measurement,setting,value
B1,glycan array binding signal (z-score),[1],-0.21
same,glycan array binding signal (z-score),[2],-0.363
same,glycan array binding signal (z-score),[3],-0.061
same,glycan array binding signal (z-score),[4],1.36
same,glycan array binding signal (z-score),[5],0.876
same,glycan array binding signal (z-score),[6],2.08
same,glycan array binding signal (z-score),[7],0.91
same,glycan array binding signal (z-score),[8],0.861
same,glycan array binding signal (z-score),[9],16.9
same,glycan array binding signal (z-score),[10],-0.728
same,glycan array binding signal (z-score),[11],-0.319
same,glycan array binding signal (z-score),[12],-0.86
same,glycan array binding signal (z-score),[13],0.504
same,glycan array binding signal (z-score),[14],-0.659
same,glycan array binding signal (z-score),[15],0.245
same,glycan array binding signal (z-score),[16],0.986
same,glycan array binding signal (z-score),[17],0.428
same,glycan array binding signal (z-score),[18],4.99
same,glycan array binding signal (z-score),[19],-0.563
same,glycan array binding signal (z-score),[20],-0.327
same,glycan array binding signal (z-score),[21],0.491
same,glycan array binding signal (z-score),[22],0.212
same,glycan array binding signal (z-score),[23],-0.018
same,glycan array binding signal (z-score),[24],-0.236
same,glycan array binding signal (z-score),[25],0.023
same,glycan array binding signal (z-score),[26],-1.2
same,glycan array binding signal (z-score),[27],-0.158
same,glycan array binding signal (z-score),[28],-0.325
same,glycan array binding signal (z-score),[29],0.919
same,glycan array binding signal (z-score),[30],-0.456
same,glycan array binding signal (z-score),[31],-0.591
same,glycan array binding signal (z-score),[32],-0.567
same,glycan array binding signal (z-score),[33],-0.667
same,glycan array binding signal (z-score),[34],-0.772
same,glycan array binding signal (z-score),[35],-0.118
same,glycan array binding signal (z-score),[36],-0.568
same,glycan array binding signal (z-score),[37],1.15

# Rewritten with tabs: entries from further up
binder	measurement	setting	value
B1	glycan array binding signal (z-score)	[12]	-0.86
same	glycan array binding signal (z-score)	[13]	0.504
